“And” between values parts separate entries of the source, which are not always exact repeats. Equal entries are not always repeated. The whole screen tested about 360,000 compounds, of which about 7,500 (2.1%) were called active. The inconclusive results got no clear call from the source; some entries with a clear call stand among them for comparison. Calls come from the whole dose curve; as a rule, active = well fitted inhibition curve with a large enough effect; inconclusive = small, poorly fitted or top-dose-only effect, or effect the other way; inactive = flat fitted curve, though single readings scatter. Where the call is inconclusive, the potency comes from a doubtful curve fit.
Assay: Nrf2 qHTS screen for inhibitors; note: nearly all actives have a fitted effect of over 60% in size
Details: A549 ARE-Fluc reporter, luciferase luminescence, 18-24 h; activity change, negative = inhibition: at 46 µM (top of the series)
Outline: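 Nrf2 activity is the BugLite luminescence, read 15 min after reagent at room temperature, following CellTiter-Fluor cytotoxicity readout (30 min, 37C). Compound titrations were applied for 18-24 h to 5000 A549 ARE_Fluc cells/well in 5% FBS OPTI-MEM.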
% is set by controls: 0 for no effect and ±100 for the full control effect; potency is the fitted concentration of half-maximal effect.

Compound | Potency | activity change, negative = inhibition
Oc1ccc(-c2cn3ccccc3n2)cc1 | inconclusive: 29.1 µM [falling, single point] | –
COc1ccc(-c2nc(C#N)c(NCc3ccccc3Cl)o2)cc1OC | inconclusive: 25.9 µM [falling, single point] | –
CCOc1ccccc1NC(=O)CNC(=O)c1nn(-c2ccc(OC)c(OC)c2)c(=O)c2ccccc12 | inconclusive: 18.4 µM [falling, single point] | –
Cc1nc(SCC(=O)NCc2ccco2)nc(C)c1C | inconclusive: 6.51 µM [falling, single point] | –
CCCCN(C)C(=O)C1CCCN(c2ncnc3onc(C)c23)C1 (stereo not given) | active: 9.2 µM | –
Cc1cc(C)n(CC(O)Cn2c3ccc(Br)cc3c3cc(Br)ccc32)c(=O)n1 (stereo not given) | inconclusive: 23.1 µM [falling, partial curve, poor fit] | –
Cc1cccc(NC(=S)NC(=O)c2ccco2)n1 | inconclusive: 2.06 µM [activator, partial curve, poor fit] | –
CC1=CC(C)(C)NC(=S)N1CCO | – | inactive: 6.05%
COc1ccccc1N1CCN(C(=O)Cn2cnc3onc(-c4ccc(F)cc4)c3c2=O)CC1 | inconclusive: 0.164 µM [falling, full curve, poor fit] | –
Cc1nn2c(-c3ccccc3)nnc2c2ccccc12 | inconclusive: 5.8 µM [activator, partial curve, poor fit] | –
COc1ccc(C(=O)NC(=S)Nc2ccc(CN3CCCCC3)cc2)cc1Cl | inconclusive: 20.6 µM [activator, single point] | –
CCOC(=O)c1c(NC(=O)Cc2cccs2)sc2c1CCCC2 | inconclusive: 6.51 µM [activator, single point] | –
Cc1cc(C)nc(N/N=C/c2cc(C)n(CC(F)(F)F)c2C)n1 | inconclusive: 16.4 µM [falling, single point] | –
COc1cccc(-c2nc(CS(=O)(=O)CC(=O)Nc3ccccc3C)c(C)o2)c1 | inconclusive: 16.4 µM [falling, single point] | –
CCOC(=O)c1cc(-c2ccccc2)sc1NC(=O)C(C)C | inconclusive: 14.6 µM [falling, partial curve, poor fit] | –
Cc1ccc(-n2c(Cc3ccccc3)nnc2SCc2nc(-c3cccs3)no2)cc1 | inconclusive: 18.4 µM [falling, single point] | –
CC(C)(C)c1nc2c(C#N)c(-c3ccc(Cl)cc3)ccn2n1 | inconclusive: 35.5 µM [falling, single point] | –
CCC(=O)Nc1ccccc1C(=O)OCC(=O)c1ccccc1 | inconclusive: 3.26 µM [activator, full curve, poor fit] | –
O=C(COC(=O)c1cccc(Br)c1)Nc1cccc2c1C(=O)c1ccccc1C2=O | inconclusive: 4.61 µM [activator, partial curve] | –
CCOC(=O)c1ccccc1NC(=O)CSc1nc2cn(CC)nc2c(=O)n1Cc1ccc(Cl)cc1 | inconclusive: 18.4 µM [falling, single point] | –
O=C(Nc1cc2c(cc1[N+](=O)[O-])OCCO2)c1cccnc1 | inconclusive: 11.6 µM [activator, partial curve] | –
Brc1ccc(-c2noc(CCc3ccccc3)n2)o1 | inconclusive: 20.6 µM [activator, single point] | –

Compound | Potency | activity change, negative = inhibition
COc1ccc(C2c3ccsc3CCN2C(=O)C(C)(C)C)cc1 (stereo not given) | inconclusive: 3.66 µM [falling, full curve, poor fit] | –
O=C1c2ccccc2C(=O)N1CCC#Cc1ccc2cc(C3(O)CCCCC3)oc(=O)c2c1 | inconclusive: 8.2 µM [falling, partial curve] | –
COc1ccc(N2CCN(C(=O)C3CCN(S(=O)(=O)c4cccs4)CC3)CC2)cc1 | inconclusive: 11.6 µM [falling, partial curve, poor fit] and inconclusive: 23.1 µM [falling, partial curve, poor fit] | –
O=C1C(=O)N(CCCO)C(c2ccc(Br)cc2)/C1=C(\O)c1ccc(Br)cc1 (stereo not given) | – | inactive: 1.2%
O=C(COC(=O)Cc1ccc(Cl)cc1)NC1CCCC1 | – | inactive: 8.43%
COc1ccc(N2CCN(C(=O)COC(=O)[C@@H](NC(=O)OCc3ccccc3)C(C)C)CC2)cc1 | inconclusive: 25.9 µM [falling, single point] | –
CC(C)c1cc(NCC2CCCO2)n2c(nc3ccccc32)c1C#N (stereo not given) | inconclusive: 18.4 µM [falling, single point] | –
COc1ccc(NC(=O)C2C(c3ccccc3)C2(Cl)Cl)cc1 (stereo not given) | inconclusive: 16.4 µM [falling, single point] | –
COc1cc(OC)cc(-c2cc3nc(C)c(CCC(=O)Nc4nc(C)cs4)c(C)n3n2)c1 | inconclusive: 20.6 µM [falling, partial curve] | –
CN(c1cccc(NC(=O)c2ccc(N(C)S(=O)(=O)c3ccccc3)cc2)c1)S(C)(=O)=O | active: 14.6 µM | –
C=CCNC(=O)c1c(Br)cnn1-c1ccc(C)cc1 | inconclusive: 5.8 µM [activator, full curve] | –
COc1cccc(CNC(=O)c2ccccc2NC(=O)C2=C(C)OCCS2)c1OC | inconclusive: 4.61 µM [falling, partial curve, poor fit] | –
CCc1c(C(=O)OCc2ccccc2)[nH]c(C)c1C | inconclusive: 16.4 µM [activator, single point] | –
Cc1onc(-c2ccccc2Cl)c1C(=O)Nc1cccc2cccnc12 | inconclusive: 29.1 µM [falling, single point] | –
COc1ccccc1/C=C/c1nc2ccccc2n1C(C)C | inconclusive: 10.3 µM [activator, partial curve] | –
COc1ccccc1NC(=O)Nc1cccc(C)n1 | – | inactive: 0.554%
CCCCN1C=C(C(=O)c2ccccc2)C(=O)CC1 | inconclusive: 4.11 µM [falling, full curve, poor fit] | –
CCn1nnc(NC(=O)c2ccccc2Br)n1 | inconclusive: 18.4 µM [activator, partial curve, poor fit] | –
O=C(Nc1cccnc1)c1ccc(-c2ccccc2)cc1 | – | inactive: 3.42%
COCC(=O)Nc1cc(C)cn(Cc2c(F)cccc2Cl)c1=O | inconclusive: 2.91 µM [falling, full curve, poor fit] | –
CN1C(=O)Cc2cc(S(=O)(=O)N3CCN(c4ccccc4F)CC3)ccc21 | inconclusive: 29.1 µM [falling, single point] | –
CCc1sc(C(=O)Nc2nccs2)cc1C | inconclusive: 29.1 µM [activator, partial curve, poor fit] | –

Compound | Potency | activity change, negative = inhibition
Sc1oc(-c2ccccc2)cc1C=Nc1ccccc1 | inconclusive: 29.1 µM [activator, single point] | –
O=Cc1ccc(-c2ccc(Cl)cc2Cl)[nH]1 | inconclusive: 20.6 µM [activator, partial curve] | –
Cc1cc(NC(=O)CSc2nccn2-c2cccc(C)c2C)no1 | inconclusive: 9.2 µM [falling, partial curve, poor fit] | –
Cc1ccccc1Nc1c(-c2ccccn2)nc2c(C)cccn12 | – | inactive: 0.388%
COc1ccccc1-c1cc(C(=O)N2CCN(S(=O)(=O)c3ccc(C)cc3)CC2)[nH]n1 | inconclusive: 23.1 µM [falling, single point] | –
CCN(CC)S(=O)(=O)c1ccc(Oc2ccccc2)c(N)c1 | inconclusive: 2.31 µM [activator, partial curve] | –
O=C(O)C(Cc1cc(Cl)ccc1Cl)Sc1nc2ccccc2[nH]1 (stereo not given) | – | inactive: -0.496%
CCOCCCNC(=O)c1c(N)n(-c2ccc3c(c2)OCO3)c2nc3ccccc3nc12 | inconclusive: 13 µM [falling, partial curve, poor fit] | –
COc1ccc(N2CCN(C(=O)CCCn3nnnc3CN3CCOCC3)C(C)C2)cc1 (stereo not given) | – | inactive: 1.08%
COc1ccc(C)cc1NC(=O)CSc1ccc(-c2ccco2)nn1 | inconclusive: 8.2 µM [falling, partial curve, poor fit] | –
COc1ncccc1-c1nnn(-c2ccc(F)cc2)n1 | inconclusive: 16.4 µM [activator, partial curve] | –
CC(C)(C)n1nnnc1C(c1ccc(C(F)(F)F)cc1)N(Cc1ccccc1)Cc1ccco1 (stereo not given) | active: 14.6 µM | –
Cc1ccc(C)c(CN2C(=O)c3ccccc3S(=O)(=O)c3ccc(C(=O)N(C)C4CCCCC4)cc32)c1 | inconclusive: 29.1 µM [falling, single point] | –
CC(/C=N/NC(=O)c1ccco1)=C\c1ccccc1 | inconclusive: 0.731 µM [activator, full curve] | –
CC1CC(C)CN(S(=O)(=O)c2ccc(NN)nc2)C1 (stereo not given) | inconclusive: 29.1 µM [falling, single point] | –
COc1ccccc1NC(=O)c1cnc(SCC(=O)NCC2CCCO2)n(C)c1=O (stereo not given) | inconclusive: 1.03 µM [falling, full curve, poor fit] | –
COc1ccc(-c2cn3cc(C)ccc3n2)cc1OC | inconclusive: 0.461 µM [activator, partial curve, poor fit] | –
CCOC(=O)c1c(NC(=O)c2ccncc2)sc(C)c1C | – | inactive: 6.74%
COc1ccc(/C=N/NC(=O)c2c(-c3ccccc3)noc2C)cc1 | inconclusive: 20.6 µM [falling, partial curve, poor fit] | –
CCN(CC(=O)NCc1cccs1)C(=O)CCOc1ccccc1C | inconclusive: 18.4 µM [falling, partial curve, poor fit] | –
N/C(=N/O)c1ccccc1N1CCC(Cc2ccccc2)CC1 | inconclusive: 29.1 µM [falling, single point] | –

Given with tabs: part of the list above
Compound	Potency	activity change, negative = inhibition
COc1ccc(N2CCN(C(=O)CCCn3nnnc3CN3CCOCC3)C(C)C2)cc1 (stereo not given)	–	inactive: 1.08%
COc1ccc(C)cc1NC(=O)CSc1ccc(-c2ccco2)nn1	inconclusive: 8.2 µM [falling, partial curve, poor fit]	–
COc1ncccc1-c1nnn(-c2ccc(F)cc2)n1	inconclusive: 16.4 µM [activator, partial curve]	–
CC(C)(C)n1nnnc1C(c1ccc(C(F)(F)F)cc1)N(Cc1ccccc1)Cc1ccco1 (stereo not given)	active: 14.6 µM	–

Given in markdown: part of the list above.

| Compound | Potency | activity change, negative = inhibition |
| --- | --- | --- |
| CC(C)(C)c1nc2c(C#N)c(-c3ccc(Cl)cc3)ccn2n1 | inconclusive: 35.5 µM [falling, single point] | – |
| CCc1c(C(=O)OCc2ccccc2)[nH]c(C)c1C | inconclusive: 16.4 µM [activator, single point] | – |
